Measurements reported in PubChem BioAssay AID504791 (Drosophila RNAi Screening Center, 2011).

- Test: 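Factors in Argonaute-based small RNA production and activity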 (primary screen)
- Cell system: Drosophila S2-derived reporter cells
- Reagents: long dsRNA against Drosophila genes, about 150-250 ng dsRNA per well (siRNA assay); about 80-120 ng (miRNA assay)
- Timing: about 5 days (siRNA assay); about 4 days (miRNA assay)
- Challenge: copper sulfate induction of reporters: 25 µM (siRNA assay); 200 mM stated (miRNA assay), 1-2 days before reading
- Detection: 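Dual luciferase assay: Renilla to firefly signal ratio in each well, scaled to the mean ratio of its plate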
- Direction: siRNA reporter hit score: higher = 3 marks a strong hit with raised ratio; -3 a strong hit with lowered ratio
- Rule for the call: 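First-pass picks had plate-scaled ratios over 1.5 for the siRNA assay, over 1.6 for the miRNA assay, or under 0.6; two distinct dsRNAs had to score alike on retest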
The screen tested about 23,000 reagents; this is a random part of those that have a named target and a result. Over the whole deposit, 199 (0.86%) were called active. 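Plate-scaled ratios behind the calls are not deposited; printed light signals are raw; many rows marked increased or decreased are still called inactive.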 Names joined by + are all predicted targets of the reagent. Not all columns of the deposit are shown.

target	DRSC id	siRNA reporter hit score	stable siRNA reporter change	miRNA reporter change	stable assay Renilla, run 1 (luminescence)	outcome
ACXD	DRSC07843				5760	inactive
eIF2D	DRSC13916				5574	inactive
MICAL-like	DRSC09829				8891	inactive
CG34425	DRSC12210				6724	inactive
CG34425	DRSC22315				4183	inactive
dimm	DRSC03100				6622	inactive
abd-A	DRSC13179				3508	inactive
abd-A	DRSC16897		reporter ratio raised past the hit cutoff	reporter ratio raised past the hit cutoff	6238	inactive
abd-A	DRSC23013				3415	inactive
Muc14A	DRSC23264				6363	inactive
Pbgs	DRSC09718				6595	inactive
arr	DRSC07451				6094	inactive
CG15617	DRSC06570				7239	inactive
CG32099	DRSC21352				8500	inactive
CG9636	DRSC16529				8814	inactive
Atg7	DRSC05741				6031	inactive
Atg7	DRSC06937				6999	inactive
Orct2	DRSC14613				9055	inactive
CG12702	DRSC19487				5715	inactive
CG1889	DRSC18195				6662	inactive
CG3982	DRSC10394		reporter ratio raised past the hit cutoff		4748	inactive
CG3982	DRSC23139				5172	inactive
TTLL1B	DRSC08594				5548	inactive
beat-IV	DRSC14195				9146	inactive
beat-IV	DRSC14673				7983	inactive
CG17266	DRSC04979				7324	inactive
CG17266	DRSC22368				12062	inactive
PICK1	DRSC02936				7048	inactive
bif	DRSC18901				4959	inactive
bif	DRSC20313				8561	inactive
RpS30	DRSC15119	3			6775	inactive
RpS30	DRSC26355			reporter ratio lowered past the hit cutoff		active
CG14877	DRSC15001				7496	inactive
CG7083	DRSC11136				5771	inactive
CG31559	DRSC12172				6955	inactive
CG31559	DRSC12270				7891	inactive
Dscam3	DRSC14525				7392	inactive
Dscam3	DRSC16376				7894	inactive
Obp56d	DRSC06064			reporter ratio lowered past the hit cutoff	4972	inactive
CG34345	DRSC02126				7495	inactive
Chc	DRSC20229				8283	inactive
cGlr1	DRSC06270				6386	inactive
S-Lap1	DRSC10627				7044	inactive
LManV	DRSC03223				7110	inactive
Hsf	DRSC07443				9106	inactive
Sem1	DRSC02282				14675	inactive
RpL13	DRSC03416				3923	inactive
sqh	DRSC18837				7875	inactive
Noc1	DRSC10921				7836	inactive
Zasp52	DRSC06269				5203	inactive
Zasp52	DRSC07121				6840	inactive
Pop2	DRSC10537				7083	inactive
CG43740	DRSC17994				5620	inactive
CG43740	DRSC23267				4560	inactive
Ptp69D	DRSC11258				8584	inactive
CG3604	DRSC00618				7600	inactive
Roe1	DRSC07534				8219	inactive
ida	DRSC08163				6935	inactive
CG44836	DRSC09915				7934	inactive
Cht4	DRSC04603				7766	inactive
Ccdc85	DRSC00501				5847	inactive
Ccdc85	DRSC23173				4155	inactive
mRpL16	DRSC18550				7726	inactive
moi + Tgs1	DRSC16371				7378	inactive
CG5402	DRSC15792				6194	inactive
Mon1	DRSC00336				7267	inactive
Mon1	DRSC26726			reporter ratio lowered past the hit cutoff		inactive
CG31198	DRSC15891				9112	inactive
Nxf3	DRSC21749				9250	inactive
CG40045	DRSC21232				4851	inactive
ubl	DRSC04998				7706	inactive
CG34434	DRSC18134				6894	inactive
CG34434	DRSC28486			reporter ratio lowered past the hit cutoff		inactive
E5	DRSC13000				4108	inactive
E5	DRSC16585				5559	inactive
E5	DRSC23157				4175	inactive
lic	DRSC20347				5875	inactive
CG32214	DRSC09613				5759	inactive
ZIPIC	DRSC16349				7370	inactive
CG11356	DRSC19401				4856	inactive
CG14626	DRSC18631				6407	inactive
Achl	DRSC06665				5608	inactive
CG43689	DRSC18383				4760	inactive
CG43689	DRSC22467				4680	inactive
CG43689	DRSC23070				4779	inactive
Galt	DRSC03161				3.01e5	inactive
mael	DRSC11894				9279	inactive
TfAP-2	DRSC11601				7735	inactive
CG5787	DRSC02895				30953	inactive
hzg	DRSC10549				5375	inactive
Hml	DRSC11183				7016	inactive
CG10553	DRSC14254				6642	inactive
Spn75F	DRSC09589				5947	inactive
CG14107	DRSC10110				6240	inactive
Snx17	DRSC02884			reporter ratio raised past the hit cutoff	12780	inactive
CG5062	DRSC18385				5943	inactive
su(sable)	DRSC18839		reporter ratio raised past the hit cutoff	reporter ratio raised past the hit cutoff	9525	active
dgrn	DRSC12154				4644	inactive
Nt5a	DRSC08561				9307	inactive
MCTS1	DRSC18393				7874	inactive
Uba3	DRSC06377				8675	inactive
GAPcenA	DRSC10771				6088	inactive
RabX1	DRSC04678				6090	inactive
sli	DRSC07684				5451	inactive
Pfk	DRSC07506				7924	inactive
CG17192	DRSC15186				5248	inactive

Called active, among the entries above:
target	DRSC id	siRNA reporter hit score	stable siRNA reporter change	miRNA reporter change	stable assay Renilla, run 1 (luminescence)	outcome
RpS30	DRSC26355			reporter ratio lowered past the hit cutoff		active
su(sable)	DRSC18839		reporter ratio raised past the hit cutoff	reporter ratio raised past the hit cutoff	9525	active
